Data published in US10525115B2 (Immatics Biotechnologies GmbH, priority 2014, dated 2020).

B1: QSOX1 quiescin Q6 sulfhydryl oxidase 1: HLA class II ligandome-derived tumor-associated antigen (LiTAA), source protein of the peptides listed under it (protein, UniProt O00391 30-747, looked up)
Sulfhydryl oxidase 1: APRSALYSPSDPLTLLQADTVRGAVLGSRSAWAVEFFASWCGHCIAFAPTWKALAEDVKAWRPALYLAALDCAEETNSAVCRDFNIPGFPTVRFFKAFTKNGSGAVFPVAGADVQTLRERLIDALESHHDTWPPACPPLEPAKLEEIDGFFARNNEEYLALIFEKGGSYLGREVALDLSQHKGVAVRRVLNTEANVVRKFGVTDFPSCYLLFRNGSVSRVPVLMESRSFYTAYLQRLSGLTREAAQTTVAPTTANKIAPTVWKLADRSKIYMADLESALHYILRIEVGRFPVLEGQRLVALKKFVAVLAKYFPGRPLVQNFLHSVNEWLKRQKRNKIPYSFFKTALDDRKEGAVLAKKVNWIGCQGSEPHFRGFPCSLWVLFHFLTVQAARQNVDHSQEAAKAKEVLPAIRGYVHYFFGCRDCASHFEQMAAASMHRVGSPNAAVLWLWSSHNRVNARLAGAPSEDPQFPKVQWPPRELCSACHNERLDVPVWDVEATLNFLKAHFSPSNIILDFPAAGSAARRDVQNVAAAPELAMGALELESRNSTLDPGKPEMMKSPTNTTPHVPAEGPEASRPPKLHPGLRAAPGQEPPEHMAELQRNEQEQPLGQWHLSKRDTGAALLAESRAEKNRLWGPLEVRRVGRSSKQLVDIPEGQLEARAGRGRGQWLQVLGGGFSYLDISLCVGLYSLSFMGLLAMYTYFQAKIRALKGHAGHPAA
B2: MANBA mannosidase, beta A, lysosomal: HLA class II ligandome-derived tumor-associated antigen (LiTAA), source protein of the peptides listed under it (protein, UniProt O00462 18-879, looked up)
Beta-mannosidase: AAELSYSLRGNWSICNGNGSLELPGAVPGCVHSALFQQGLIQDSYYRFNDLNYRWVSLDNWTYSKEFKIPFEISKWQKVNLILEGVDTVSKILFNEVTIGETDNMFNRYSFDITNVVRDVNSIELRFQSAVLYAAQQSKAHTRYQVPPDCPPLVQKGECHVNFVRKEQCSFSWDWGPSFPTQGIWKDVRIEAYNICHLNYFTFSPIYDKSAQEWNLEIESTFDVVSSKPVGGQVIVAIPKLQTQQTYSIELQPGKRIVELFVNISKNITVETWWPHGHGNQTGYNMTVLFELDGGLNIEKSAKVYFRTVELIEEPIKGSPGLSFYFKINGFPIFLKGSNWIPADSFQDRVTSELLRLLLQSVVDANMNTLRVWGGGIYEQDEFYELCDELGIMVWQDFMFACALYPTDQGFLDSVTAEVAYQIKRLKSHPSIIIWSGNNENEEALMMNWYHISFTDRPIYIKDYVTLYVKNIRELVLAGDKSRPFITSSPTNGAETVAEAWVSQNPNSNYFGDVHFYDYISDCWNWKVFPKARFASEYGYQSWPSFSTLEKVSSTEDWSFNSKFSLHRQHHEGGNKQMLYQAGLHFKLPQSTDPLRTFKDTIYLTQVMQAQCVKTETEFYRRSRSEIVDQQGHTMGALYWQLNDIWQAPSWASLEYGGKWKMLHYFAQNFFAPLLPVGFENENTFYIYGVSDLHSDYSMTLSVRVHTWSSLEPVCSRVTERFVMKGGEAVCLYEEPVSELLRRCGNCTRESCVVSFYLSADHELLSPTNYHFLSSPKEAVGLCKAQITAIISQQGDIFVFDLETSAVAPFVWLDVGSIPGRFSDNGFLMTEKTRTILFYPWEPTSKNELEQSFHVTSLTDIY

System: primary AML samples
Assay: HLA class II ligandome analysis (LC-MS/MS) of primary AML samples
Parameters: species or system human
Conditions: AML patients n=12; for Number of positive AMLs: HLA class II ligandome; for rep. frequency in AMLs: source protein level, HLA class II

Molecule	Number of positive AMLs	rep. frequency in AMLs [%]
B1	3	25.0
B2	3	25.0
